Results as given in publication PMC5458344.
These are yes or no findings as the source states them, for the method shown. In cells and extracts the contact can be indirect. Binding can be weak; no strength is given. Where a sequence is shown, tags or fusion partners need not be part of it.

biological target: T1, GST-emerin (amino acids 1–176, lacking the TM domain) (UniProt P50402); test: pull-down; reverse: GST-lamin A (356–665) or GST-emerin (1–176) on glutathione-Sepharose beads; lysates of U2OS cells transfected with GFP-nesprin-1α2 WT or mutants; 16 h at 4 °C; Western blot, densitometry as ratio to WT; only the target purified
T1 sequence: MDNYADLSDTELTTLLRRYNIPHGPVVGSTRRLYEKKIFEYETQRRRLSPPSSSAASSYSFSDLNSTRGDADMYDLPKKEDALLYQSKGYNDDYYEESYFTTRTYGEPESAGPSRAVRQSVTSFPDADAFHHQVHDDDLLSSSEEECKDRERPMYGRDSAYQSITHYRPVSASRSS

Row | binding | Substance
1 | binds | GFP-tagged nesprin-1α2 N8406K (human)
2 | binds | GFP-tagged nesprin-1α2 R8272Q (human)
3 | binds | GFP-tagged nesprin-1α2 S8381C (human)
4 | binds | GFP-tagged nesprin-1α2 WT (human)
